# Literature values in article PMC9495826, “Membranolytic Mechanism of Amphiphilic Antimicrobial β-Stranded [KL]n Peptides” (Biomedicines, 2022).
# Like-named read-outs stand apart in the source and are kept apart here.
# Conditions: ref [58],[59], cited from earlier work
substance,measurement,setting,value
alamethicin,Inner diameter of water-filled barrel-stave pores,in DLPC,1.8 nm
same,Inner diameter of water-filled barrel-stave pores,in DPhPC,2.6 nm
